Measurements reported in the supplement of paper PMC10849652.
The other results are listed elsewhere or left out.

Chains of the proteins cited; added tags and fusions are not shown. Lines headed by an entry give the natural chain unless they say otherwise; changes in a name come on top.
UniProt Q8NEW0: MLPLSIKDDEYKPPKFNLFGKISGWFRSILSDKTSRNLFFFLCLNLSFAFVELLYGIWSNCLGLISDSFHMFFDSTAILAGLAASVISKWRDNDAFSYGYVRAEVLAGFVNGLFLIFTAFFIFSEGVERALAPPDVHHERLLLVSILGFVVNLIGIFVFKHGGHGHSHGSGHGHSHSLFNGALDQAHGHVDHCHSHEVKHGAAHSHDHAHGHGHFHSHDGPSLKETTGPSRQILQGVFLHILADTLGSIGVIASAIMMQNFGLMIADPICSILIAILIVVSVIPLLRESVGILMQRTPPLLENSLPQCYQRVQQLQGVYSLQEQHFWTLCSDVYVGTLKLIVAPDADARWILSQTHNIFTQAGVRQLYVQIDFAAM
UniProt P78382: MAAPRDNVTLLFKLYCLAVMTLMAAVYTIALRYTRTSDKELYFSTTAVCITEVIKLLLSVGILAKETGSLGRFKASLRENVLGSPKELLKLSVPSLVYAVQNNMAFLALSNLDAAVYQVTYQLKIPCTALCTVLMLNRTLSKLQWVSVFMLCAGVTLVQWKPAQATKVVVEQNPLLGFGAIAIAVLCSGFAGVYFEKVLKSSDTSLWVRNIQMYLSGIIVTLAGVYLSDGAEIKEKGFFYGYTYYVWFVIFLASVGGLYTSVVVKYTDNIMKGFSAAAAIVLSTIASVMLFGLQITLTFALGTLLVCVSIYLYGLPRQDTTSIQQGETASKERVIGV
UniProt Q9Y2E8: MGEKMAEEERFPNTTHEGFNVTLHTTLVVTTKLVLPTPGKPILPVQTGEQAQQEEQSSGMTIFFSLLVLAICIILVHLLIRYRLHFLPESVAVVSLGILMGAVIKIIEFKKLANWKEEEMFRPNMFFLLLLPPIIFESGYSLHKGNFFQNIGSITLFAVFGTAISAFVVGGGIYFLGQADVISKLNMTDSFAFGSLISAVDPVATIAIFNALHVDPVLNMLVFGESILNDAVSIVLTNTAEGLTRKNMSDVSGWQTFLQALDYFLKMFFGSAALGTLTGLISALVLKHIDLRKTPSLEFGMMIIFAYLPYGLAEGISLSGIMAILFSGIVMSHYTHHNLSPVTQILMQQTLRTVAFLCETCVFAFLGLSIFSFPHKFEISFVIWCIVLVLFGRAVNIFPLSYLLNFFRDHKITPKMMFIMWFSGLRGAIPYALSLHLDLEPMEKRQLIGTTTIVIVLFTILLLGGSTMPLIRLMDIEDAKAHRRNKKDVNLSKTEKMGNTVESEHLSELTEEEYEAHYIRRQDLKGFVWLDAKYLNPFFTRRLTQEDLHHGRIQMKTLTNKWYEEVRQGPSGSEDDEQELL
UniProt P16260: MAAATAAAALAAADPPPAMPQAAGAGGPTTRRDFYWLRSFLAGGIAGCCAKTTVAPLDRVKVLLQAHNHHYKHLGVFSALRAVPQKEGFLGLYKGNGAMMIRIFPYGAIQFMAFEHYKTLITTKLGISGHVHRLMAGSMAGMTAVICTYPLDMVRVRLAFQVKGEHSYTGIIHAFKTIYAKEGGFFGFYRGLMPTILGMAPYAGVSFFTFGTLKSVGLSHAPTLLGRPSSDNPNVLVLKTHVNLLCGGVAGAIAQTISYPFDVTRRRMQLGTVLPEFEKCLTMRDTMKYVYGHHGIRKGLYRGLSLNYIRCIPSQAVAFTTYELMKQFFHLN
UniProt Q8IVJ1: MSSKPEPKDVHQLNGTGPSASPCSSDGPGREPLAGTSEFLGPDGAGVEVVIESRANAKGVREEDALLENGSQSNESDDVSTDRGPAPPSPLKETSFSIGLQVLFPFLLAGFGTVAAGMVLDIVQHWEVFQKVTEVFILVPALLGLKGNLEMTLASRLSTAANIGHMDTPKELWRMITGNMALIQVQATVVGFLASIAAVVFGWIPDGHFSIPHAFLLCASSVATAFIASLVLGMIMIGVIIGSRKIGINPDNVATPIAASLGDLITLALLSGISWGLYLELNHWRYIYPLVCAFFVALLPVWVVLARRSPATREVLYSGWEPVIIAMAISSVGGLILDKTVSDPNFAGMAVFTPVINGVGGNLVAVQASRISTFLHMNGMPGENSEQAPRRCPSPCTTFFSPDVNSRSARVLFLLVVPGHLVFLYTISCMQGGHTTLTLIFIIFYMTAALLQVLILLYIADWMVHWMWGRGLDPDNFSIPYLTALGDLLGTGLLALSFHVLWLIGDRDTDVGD
UniProt Q9NY26: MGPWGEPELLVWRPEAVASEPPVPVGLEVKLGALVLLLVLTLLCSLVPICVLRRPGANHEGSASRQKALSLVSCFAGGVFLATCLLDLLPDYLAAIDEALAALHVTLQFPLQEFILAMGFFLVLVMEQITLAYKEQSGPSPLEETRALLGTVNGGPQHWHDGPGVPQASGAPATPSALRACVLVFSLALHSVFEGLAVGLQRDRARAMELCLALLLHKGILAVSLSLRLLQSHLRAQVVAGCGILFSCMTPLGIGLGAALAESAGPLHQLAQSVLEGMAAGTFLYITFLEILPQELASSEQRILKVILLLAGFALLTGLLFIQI
UniProt Q9BZD2: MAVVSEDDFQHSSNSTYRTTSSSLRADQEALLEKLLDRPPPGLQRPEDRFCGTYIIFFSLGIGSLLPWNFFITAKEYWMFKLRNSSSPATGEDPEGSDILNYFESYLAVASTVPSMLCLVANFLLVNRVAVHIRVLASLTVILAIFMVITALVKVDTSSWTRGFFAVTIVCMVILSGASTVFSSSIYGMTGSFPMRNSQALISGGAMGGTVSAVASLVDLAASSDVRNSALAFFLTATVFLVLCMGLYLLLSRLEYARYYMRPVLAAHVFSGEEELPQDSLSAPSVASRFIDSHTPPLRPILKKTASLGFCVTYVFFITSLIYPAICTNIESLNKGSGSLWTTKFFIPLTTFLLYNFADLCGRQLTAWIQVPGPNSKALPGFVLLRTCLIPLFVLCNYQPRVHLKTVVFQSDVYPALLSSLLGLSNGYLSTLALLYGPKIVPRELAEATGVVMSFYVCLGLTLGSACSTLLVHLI
UniProt Q96GZ6: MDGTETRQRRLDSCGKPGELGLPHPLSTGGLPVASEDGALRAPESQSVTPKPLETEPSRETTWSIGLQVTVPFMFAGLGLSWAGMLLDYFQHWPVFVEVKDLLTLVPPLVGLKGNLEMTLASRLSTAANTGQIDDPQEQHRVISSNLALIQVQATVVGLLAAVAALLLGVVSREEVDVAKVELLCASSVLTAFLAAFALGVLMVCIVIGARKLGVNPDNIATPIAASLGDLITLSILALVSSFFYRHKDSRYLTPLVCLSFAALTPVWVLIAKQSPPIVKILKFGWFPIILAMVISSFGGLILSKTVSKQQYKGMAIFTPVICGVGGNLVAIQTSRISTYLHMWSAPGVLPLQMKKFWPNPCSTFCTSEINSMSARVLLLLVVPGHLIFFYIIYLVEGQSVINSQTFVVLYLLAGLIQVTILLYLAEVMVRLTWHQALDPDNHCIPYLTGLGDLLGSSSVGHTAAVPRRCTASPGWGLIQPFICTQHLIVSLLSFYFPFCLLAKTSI
UniProt Q99717: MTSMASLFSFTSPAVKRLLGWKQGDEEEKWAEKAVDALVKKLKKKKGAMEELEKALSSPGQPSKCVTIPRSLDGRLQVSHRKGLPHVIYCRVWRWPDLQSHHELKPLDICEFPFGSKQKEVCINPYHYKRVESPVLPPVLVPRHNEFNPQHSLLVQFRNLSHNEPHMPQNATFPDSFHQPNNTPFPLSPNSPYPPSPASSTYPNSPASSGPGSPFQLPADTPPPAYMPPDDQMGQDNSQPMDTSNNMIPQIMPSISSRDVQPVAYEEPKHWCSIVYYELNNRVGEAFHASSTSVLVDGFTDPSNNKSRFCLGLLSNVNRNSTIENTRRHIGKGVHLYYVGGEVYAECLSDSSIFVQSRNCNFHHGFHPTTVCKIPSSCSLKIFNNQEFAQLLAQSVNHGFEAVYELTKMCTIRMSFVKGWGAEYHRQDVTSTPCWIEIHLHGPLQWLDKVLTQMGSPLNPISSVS
UniProt Q6ZP29: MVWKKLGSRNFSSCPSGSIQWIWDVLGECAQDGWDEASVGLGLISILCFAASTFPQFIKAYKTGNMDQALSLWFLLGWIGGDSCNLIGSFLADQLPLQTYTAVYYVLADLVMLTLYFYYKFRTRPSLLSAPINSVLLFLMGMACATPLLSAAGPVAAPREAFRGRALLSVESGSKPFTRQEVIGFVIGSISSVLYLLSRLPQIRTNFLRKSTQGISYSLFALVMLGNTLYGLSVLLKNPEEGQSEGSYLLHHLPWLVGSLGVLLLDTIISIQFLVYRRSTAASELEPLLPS
UniProt Q13433: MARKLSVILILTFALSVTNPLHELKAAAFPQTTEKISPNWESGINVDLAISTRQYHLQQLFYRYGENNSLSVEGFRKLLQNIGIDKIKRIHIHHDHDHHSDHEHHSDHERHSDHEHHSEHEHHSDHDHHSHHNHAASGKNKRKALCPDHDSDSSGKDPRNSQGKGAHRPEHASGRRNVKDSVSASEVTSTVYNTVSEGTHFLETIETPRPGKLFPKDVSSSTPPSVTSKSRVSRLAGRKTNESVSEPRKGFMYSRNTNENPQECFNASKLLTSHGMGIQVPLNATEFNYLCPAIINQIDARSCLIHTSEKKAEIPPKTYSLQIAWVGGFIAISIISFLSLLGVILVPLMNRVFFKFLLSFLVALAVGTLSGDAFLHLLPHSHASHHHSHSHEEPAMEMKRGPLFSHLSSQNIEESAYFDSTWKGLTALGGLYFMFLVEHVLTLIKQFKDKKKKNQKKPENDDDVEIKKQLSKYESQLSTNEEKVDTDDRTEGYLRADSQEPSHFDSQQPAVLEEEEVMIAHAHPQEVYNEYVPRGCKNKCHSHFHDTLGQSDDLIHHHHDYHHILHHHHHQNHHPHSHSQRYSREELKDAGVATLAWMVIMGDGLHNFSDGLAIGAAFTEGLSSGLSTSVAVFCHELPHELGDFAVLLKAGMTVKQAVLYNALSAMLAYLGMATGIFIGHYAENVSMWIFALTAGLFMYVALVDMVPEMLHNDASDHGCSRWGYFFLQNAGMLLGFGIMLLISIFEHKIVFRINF
UniProt Q9BRV3: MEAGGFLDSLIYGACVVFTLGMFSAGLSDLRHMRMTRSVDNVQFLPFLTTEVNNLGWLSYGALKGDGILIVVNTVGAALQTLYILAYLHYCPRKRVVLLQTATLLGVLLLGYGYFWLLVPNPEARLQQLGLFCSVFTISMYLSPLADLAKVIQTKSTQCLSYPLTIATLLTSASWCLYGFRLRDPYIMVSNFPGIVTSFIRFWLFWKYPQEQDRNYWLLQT
UniProt Q9BV35: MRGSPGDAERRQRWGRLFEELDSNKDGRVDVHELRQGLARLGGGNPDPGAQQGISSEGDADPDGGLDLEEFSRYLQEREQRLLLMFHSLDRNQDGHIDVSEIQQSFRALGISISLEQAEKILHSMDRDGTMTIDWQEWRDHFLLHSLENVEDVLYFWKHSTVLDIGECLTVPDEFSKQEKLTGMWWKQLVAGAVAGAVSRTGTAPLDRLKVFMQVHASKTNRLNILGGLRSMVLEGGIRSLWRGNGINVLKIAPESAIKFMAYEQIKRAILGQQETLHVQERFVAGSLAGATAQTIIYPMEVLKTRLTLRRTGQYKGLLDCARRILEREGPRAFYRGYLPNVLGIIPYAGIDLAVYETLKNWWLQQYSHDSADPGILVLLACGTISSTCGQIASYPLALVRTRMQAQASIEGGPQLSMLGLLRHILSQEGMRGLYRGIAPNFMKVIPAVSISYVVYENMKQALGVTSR
UniProt Q9NVC3: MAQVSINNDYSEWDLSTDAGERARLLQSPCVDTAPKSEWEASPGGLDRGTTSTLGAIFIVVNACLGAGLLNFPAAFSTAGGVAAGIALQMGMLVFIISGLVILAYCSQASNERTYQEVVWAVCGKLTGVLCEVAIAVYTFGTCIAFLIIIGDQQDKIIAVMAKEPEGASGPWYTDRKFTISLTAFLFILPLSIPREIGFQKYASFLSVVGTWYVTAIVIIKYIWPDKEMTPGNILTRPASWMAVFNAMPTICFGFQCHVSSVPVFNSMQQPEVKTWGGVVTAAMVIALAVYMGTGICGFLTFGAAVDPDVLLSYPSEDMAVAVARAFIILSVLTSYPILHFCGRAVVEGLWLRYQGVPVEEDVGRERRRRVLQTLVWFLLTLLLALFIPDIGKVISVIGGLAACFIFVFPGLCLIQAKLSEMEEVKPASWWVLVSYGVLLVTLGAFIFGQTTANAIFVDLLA
UniProt Q96A29: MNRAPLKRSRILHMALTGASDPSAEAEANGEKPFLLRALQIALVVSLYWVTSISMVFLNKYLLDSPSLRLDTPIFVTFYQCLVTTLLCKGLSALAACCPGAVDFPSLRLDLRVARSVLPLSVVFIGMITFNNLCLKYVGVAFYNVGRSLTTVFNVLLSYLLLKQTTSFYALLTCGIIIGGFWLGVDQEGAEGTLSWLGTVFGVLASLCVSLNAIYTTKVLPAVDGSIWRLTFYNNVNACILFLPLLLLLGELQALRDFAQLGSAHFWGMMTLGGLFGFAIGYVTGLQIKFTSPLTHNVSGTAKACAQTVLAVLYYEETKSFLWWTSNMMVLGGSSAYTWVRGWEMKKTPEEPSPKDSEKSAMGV

Compound: CN1CC[C@H](c2c(O)cc(O)c3c(=O)cc(-c4ccccc4Cl)oc23)[C@H](O)C1 [alvocidib]
Assay: log2 fold change, soluble protein after heating vs DMSO (PISA); higher = thermal stabilisation; K562 lysate, 10 uM; active = over 0.2 and 3.5 SD of the protein, either way, in both replicates (recomputed)
In short: (§1)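 Thermal stability, expressed as log-two fold change relative to solvent controls, is given from duplicates. Crude K562 extract in PBS pH 7.4 with 1 mM MgCl2, at 1 mg/mL protein, was treated with 10 μM compound for 30 min and heated in aliquots for 3 min across 48°C-58°C. After pooling, adjustment to 0.5% NP-40 at 4°C and centrifugation at 21,000xg for 90 min, supernatant protein was measured by TMTpro 16plex LC-MS/MS with channel sums equalised.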

| Target | log2 fold change |
| --- | --- |
| SLC30A7 (UniProt Q8NEW0) | inactive: 0.133 |
| SLC35A1 (UniProt P78382) | inactive: -0.043 |
| SLC9A8 isoform 2 (UniProt Q9Y2E8) | inactive: 0.023 |
| SLC3A2 (UniProt F5H867) | inactive: -0.088 |
| SLC25A16 (UniProt P16260) | inactive: -0.024 |
| SLC2A13 (UniProt Q96QE2) | inactive: -0.033 |
| SLCO4A1 (UniProt Q96BD0) | inactive: -0.129 |
| SLC41A1 (UniProt Q8IVJ1) | inactive: -0.213 |
| SLC39A1 (UniProt Q9NY26) | inactive: -0.133 |
| SLCO2B1 (UniProt O94956) | inactive: -0.03 |
| SLC29A3 (UniProt Q9BZD2) | inactive: 0.033 |
| SLC41A3 isoform 9 (UniProt Q96GZ6) | inactive: -0.138 |
| SMAD5 (UniProt Q99717) | inactive: -0.016 |
| SLC26A11 (UniProt Q86WA9) | inactive: -0.116 |
| SLC46A1 (UniProt Q96NT5) | inactive: 0.068 |
| SLC66A1 (UniProt Q6ZP29) | inactive: -0.021 |
| SLC39A6 (UniProt Q13433) | inactive: 0.006 |
| SLC50A1 (UniProt Q9BRV3) | inactive: -0.042 |
| SLC8B1 (UniProt Q6J4K2) | inactive: -0.038 |
| SLC25A23 isoform 3 (UniProt Q9BV35) | inactive: -0.154 |
| SLC44A1 (UniProt Q8WWI5) | inactive: -0.11 |
| SLFN14 (UniProt P0C7P3) | inactive: -0.073 |
| SLC38A7 (UniProt Q9NVC3) | inactive: -0.069 |
| SLC25A35 (UniProt Q3KQZ1) | inactive: 0.128 |
| SLC25A39 (UniProt Q9BZJ4) | inactive: 0.011 |

Compound: CN1CCc2c(c3ccccc3n2Cc2ccc(C(=O)NO)cc2)C1 [Tubastatin A]
Assay: as above
In short: as §1

| Target | log2 fold change |
| --- | --- |
| SLC66A2 (UniProt Q8N2U9) | inactive: 0.036 |
| SLC39A13 (UniProt Q96H72) | inactive: -0.125 |
| SLC30A7 (UniProt Q8NEW0) | inactive: -0.009 |
| SLC9A8 isoform 2 (UniProt Q9Y2E8) | inactive: 0.022 |
| SMAD3 (UniProt P84022) | inactive: -0.07 |
| SLC41A1 (UniProt Q8IVJ1) | inactive: 0.055 |
| SLC35C1 (UniProt Q96A29) | inactive: -0.13 |
| SLC39A1 (UniProt Q9NY26) | inactive: -0.003 |
| SLC29A3 (UniProt Q9BZD2) | inactive: -0.111 |
| SLC41A3 isoform 9 (UniProt Q96GZ6) | inactive: 0.178 |
| SLC43A3 (UniProt Q8NBI5) | inactive: 0.221 |
| SLC66A1 (UniProt Q6ZP29) | inactive: -0.088 |
| SLC39A6 (UniProt Q13433) | inactive: 0.083 |
| SLC50A1 (UniProt Q9BRV3) | inactive: 0.178 |
| SLC9B2 (UniProt Q86UD5) | inactive: 0.071 |
| SLC25A23 isoform 3 (UniProt Q9BV35) | inactive: 0.097 |
| SLC44A1 (UniProt Q8WWI5) | inactive: 0.056 |

Compound: CNC(=O)C1=CC=CC=C1NC2=NC(=NC=C2Cl)NC3=C(C=C(C=C3)N4CCOCC4)OC
Assay: as above
In short: as §1

| Target | log2 fold change |
| --- | --- |
| SLC66A2 (UniProt Q8N2U9) | inactive: -0.034 |
| SLC39A13 (UniProt Q96H72) | inactive: -0.058 |
| SLC35A1 (UniProt P78382) | inactive: -0.23 |
| SLX4 (UniProt Q8IY92) | inactive: -0.081 |
| SLC9A8 isoform 2 (UniProt Q9Y2E8) | inactive: 0.033 |
| SLC25A16 (UniProt P16260) | inactive: -0.016 |
| SLC2A13 (UniProt Q96QE2) | inactive: -0.085 |
| SLC41A1 (UniProt Q8IVJ1) | inactive: 0.043 |
| SLC35C1 (UniProt Q96A29) | inactive: 0.142 |
| SLC39A1 (UniProt Q9NY26) | inactive: 0.024 |
| SLC29A3 (UniProt Q9BZD2) | inactive: 0.114 |
| SMAD5 (UniProt Q99717) | inactive: 0.086 |
| SLC26A11 (UniProt Q86WA9) | inactive: 0 |
| SLC46A1 (UniProt Q96NT5) | inactive: -0.007 |
| SLC66A1 (UniProt Q6ZP29) | inactive: -0.01 |
| SLC39A6 (UniProt Q13433) | inactive: -0.068 |
| SLC38A6 isoform 2 (UniProt Q8IZM9) | inactive: -0.083 |
| SLC50A1 (UniProt Q9BRV3) | inactive: 0.016 |
| SLC25A23 isoform 3 (UniProt Q9BV35) | inactive: 0.216 |
| SLC27A6 (UniProt Q9Y2P4) | inactive: 0.085 |
| SLC38A7 (UniProt Q9NVC3) | inactive: -0.149 |
| SLC25A39 (UniProt Q9BZJ4) | inactive: -0.128 |

Compound: CNC(=O)c1ccc(Nc2ncc(C(F)(F)F)c(NCc3nccnc3N(C)S(C)(=O)=O)n2)cc1 [defactinib]
Assay: as above
In short: as §1

| Target | log2 fold change |
| --- | --- |
| SLC30A7 (UniProt Q8NEW0) | inactive: 0 |
| SLC35A1 (UniProt P78382) | inactive: 0.031 |
| SLC35D1 (UniProt Q9NTN3) | inactive: 0.035 |
| SLC25A28 (UniProt Q96A46) | inactive: 0.003 |
| SLC25A16 (UniProt P16260) | inactive: 0.027 |
| SLC66A3 (UniProt Q8N755) | inactive: -0.022 |
| SLC35C1 (UniProt Q96A29) | inactive: 0.061 |
| SLC41A3 isoform 9 (UniProt Q96GZ6) | inactive: -0.078 |
| SLC35E2B (UniProt P0CK96) | inactive: 0.073 |
| SMAD5 (UniProt Q99717) | inactive: 0 |
| SLC38A6 isoform 2 (UniProt Q8IZM9) | inactive: 0.05 |
| SLC8B1 (UniProt Q6J4K2) | inactive: 0.024 |
| SLFN14 (UniProt P0C7P3) | inactive: 0.13 |
| SLC38A7 (UniProt Q9NVC3) | inactive: 0.022 |
